According to PMC12040169 (PLOS Biology, 2025):
Some of the results follow.

system: T1, CTL2-GFP (C. trachomatis L2/434/Bu, GFP-expressing); set-up: species or system HeLa; Intracellular C. trachomatis growth in HeLa cells, bulk GFP fluorescence relative to DMSO; conditions: bulk GFP, single well; 28.5 h, 10 µM; inhibitor
T1 construct: L2/434/Bu, GFP-expressing

SMILES | % of control remaining [%]
O=C(C[C@@H]1O[C@H](CNCc2cccc(Cl)c2)[C@@H](O)[C@H]1O)N1CCOCC1 [CBK288905] | 135.955
O=C(O)c1cccc(N2C(=O)CC(n3cnc4ccccc43)C2=O)c1 (stereo not drawn) [CBK291145] | 145.435
CCCC(=O)CCOC(=O)C1=C(C)OC2C1Nc1cc(F)c(F)cc1N2CC (stereo not drawn) [CBK022099] | 156.542
O=C(c1cccs1)N1CCC(c2n[nH]c3ncccc23)CC1 [CBK284904] | 124.449
CC(=O)Nc1ccc(-c2cncc(N3CCN(C(=O)c4ccco4)CC3)n2)cc1 [CBK066065] | 122.653
Cc1noc(C)c1C(=O)N1CCC(c2nc(C)n3ccsc23)CC1 [CBK285239] | 146.85
O=C(NCc1ccc2c(c1)OCO2)[C@H]1CN2CCC1C[C@@H]2Cn1cc(-c2ccccn2)nn1 (stereo partly drawn) [CBK289082] | 114.207
O=C(O)c1ccc(-n2nnnc2Sc2nc([N+](=O)[O-])nn2Cc2ccccc2F)cc1 [CBK268498] | 158.174
COc1ccc(OC)c(NC(=O)CN2CCC(C(N)=O)(N3CCCCC3)CC2)c1 [CBK268462] | 123.334
C(=N\c1ccc(Cc2ccc(/N=C/c3cccnc3)cc2)cc1)/c1cccnc1 [CBK260884] | 118.435
Cc1nc(C)c(C(=O)N2CC(C(=O)N3CCN(c4ccccc4)CC3)C2)s1 [CBK285666] | 110.823
CCOc1ccc(-c2ccnc(N3CCC(N(C)C)C3)n2)cc1C(=O)O (stereo not drawn) [CBK307241] | 110.398
O=C1Cc2ccccc2C2(CCN(C(=O)c3cccc4cccc(C(=O)O)c34)CC2)N1 [CBK047313] | 96.1536
Cc1ccc(-n2c(SCC(=O)NC(C)Cc3ccccc3)nc3sc4c(c3c2=O)CC(C)(C)OC4)cc1 (stereo not drawn) [CBK267714] | 110.62
COCCCOc1cncc(N2CCCC2)n1 [CBK115759] | 128.021
O=C(Nc1ccc(Cl)cc1C(=O)NCCN1CCOCC1)c1ccc(Cl)cc1Cl [CBK265749] | 197.978
O=C(CSc1nc2sc3c(c2c(=O)[nH]1)CCCC3)NCCN1CCOCC1 [CBK264064] | 105.489
OC(Cn1nnc2ccccc21)Cn1c(-c2ccccc2)c(-c2ccccc2)c2ccc3ccccc3c21 (stereo not drawn) [CBK264054G] | 59.1575
CC(=O)Nc1ccc(S(=O)(=O)NNC(=O)c2cccc(Cl)c2)cc1 [CBK261694] | 108.293
Cc1nnc(Sc2nc3ccccc3nc2NC(C)C)s1 [CBK093731] | 112.698
Cc1cc(O)nc2sc(C(=O)c3ccccc3)c(N)c12 [CBK115334] | 114.312
COCCNC(=O)c1nnn(-c2ccc(Br)cc2)c1C [CBK300524] | 177.851
CC(C)(C)C(=O)NC(=S)Nc1ccc(Cc2ccncc2)cc1 [CBK269717] | 122.538
COCC(=O)N1CCc2sccc2C1c1ccc(NC(=O)c2ccc(F)cc2)cc1 (stereo not drawn) [CBK286435] | 90.3608
N#CCCCN1CCCC2(C1)NCCc1c2[nH]c2cc(F)ccc12 (stereo not drawn) [CBK039826] | 86.8064
CN(C)CCCC(=O)N1CCN(C(=O)c2ccco2)CC1 [CBK144445] | 164.32

Quoted at random: two entries already listed, in no set order.
SMILES | % of control remaining [%]
O=C(Nc1ccc(Cl)cc1C(=O)NCCN1CCOCC1)c1ccc(Cl)cc1Cl [CBK265749] | 197.978
Cc1noc(C)c1C(=O)N1CCC(c2nc(C)n3ccsc23)CC1 [CBK285239] | 146.85

Shown field by field: entries from further up
CCOc1ccc(-c2ccnc(N3CCC(N(C)C)C3)n2)cc1C(=O)O (stereo not drawn) [CBK307241]
  % of control remaining [%]: 110.398
O=C1Cc2ccccc2C2(CCN(C(=O)c3cccc4cccc(C(=O)O)c34)CC2)N1 [CBK047313]
  % of control remaining [%]: 96.1536
Cc1ccc(-n2c(SCC(=O)NC(C)Cc3ccccc3)nc3sc4c(c3c2=O)CC(C)(C)OC4)cc1 (stereo not drawn) [CBK267714]
  % of control remaining [%]: 110.62

The list continues:

SMILES | % of control remaining [%]
C[C@H](Nc1nc(-c2ccoc2)cnc1N)c1ccccc1 [CBK063707] | 177.46
CCOC(=O)C(NC(=O)c1cn[nH]c1)c1cccc(C)c1C (stereo not drawn) [CBK304175] | 133.414
CC1(C)C[C@H](NC(=O)c2ccccc2)[C@@]2(CCC(=O)NC3CC3)CC[C@](C)(O)C[C@@H]12 [CBK289045] | 139.773
CS(=O)(=O)c1ccc(CN2CCOC[C@H]2c2nc(-c3ccc(F)cc3)c[nH]2)cc1 [CBK289295] | 129.183
Cc1ccc(Cc2cnc(NC(=O)NC3CCOCC3)s2)cc1Cl [CBK304440] | 117.419
CC(=O)Nc1ccc2nc(NC(=O)c3ccc(C#N)cc3)sc2c1 [CBK287309] | 155.894
COc1ccc(-c2nn(-c3ccccc3)cc2C(=O)Nc2ccc(C(=O)O)cc2)cc1 [CBK296121] | 116.146
O=C(CCn1c(C(F)(F)F)cc2cccnc21)NC1CCCC1 [CBK284864] | 123.105
CC1(C)CC(=O)c2sc(NC(=O)C3COc4ccccc4O3)nc2C1 (stereo not drawn) [CBK144104] | 109.202
COc1ccc(C(=O)N[C@H]2C[C@H]3C(=O)Nc4ccc(-c5ccsc5)cc4C(=O)N3C2)cc1 [CBK289362] | 95.5104
CCN(Cc1ccccc1)C1CCN(Cc2cccc(OC)c2)CC1 [CBK264654G] | 108.851
Cc1cc(N2CCC(O)CC2)nc(N)n1 [CBK167265] | 128.997
COc1ccc(/C=C/C(=O)NCc2ccc(S(N)(=O)=O)cc2)cc1OC [CBK265483] | 133.662
CCCc1n[nH]c(-c2cc(C(F)(F)F)ccc2F)c1C(=O)OCC [CBK107231] | 101.606
CS(=O)(=O)CCC(C(=O)O)N1C(=O)c2ccc(Oc3ccc(Cl)cc3)cc2C1=O (stereo not drawn) [CBK266377] | 186.237
COc1ccc(-n2cc(-c3ccccn3)nn2)cc1OC [CBK113133] | 114.559
Cc1ccccc1NC(=O)/C(=C\c1cccnc1)NC(=O)c1ccccc1 [CBK261632] | 125.351
CCn1c(SCC(=O)Nc2ccc([N+](=O)[O-])cc2O)nnc1-c1ccccc1 [CBK268730] | 108.658
COc1ccc(CC(=O)Nc2cccc(-c3cn4ccc(C)cc4n3)c2)cc1OC [CBK269148] | 163.002
Cc1cc(S(=O)(=O)N(C)CCC#N)c(C)cc1Cl [CBK043787] | 103.819
Cc1n[nH]c(C)c1C12CC3CC(CC(CC(=O)O)(C3)C1)C2 [CBK288241] | 132.682
CSC(C)C(=O)N(C)C1CCN(c2ncnc3ccccc23)CC1 (stereo not drawn) [CBK305300] | 107.284
O=C(c1cscn1)N1CCN(CCc2ccccc2)CC1 [CBK200230] | 127.365
CC(=O)c1ccc(-c2cn3ccnc3c(N3CCN(C)CC3)n2)s1 [CBK037957] | 183.974
Cc1ccc(Nc2nc(Cn3nc(C(=O)O)c4ccccc4c3=O)cs2)cc1 [CBK296989] | 158.015
Cc1ccnn1CCC(=O)NC1(c2ccc(F)cc2)CCCC1 [CBK283600] | 85.702

SMILES | % of control remaining [%]
COc1ccccc1NC(=O)C1CCN(C(=O)OC(C)(C)C)CC1 [CBK296746] | 144.235
Cc1ccn2c(CN3CCCC(Cn4ccnc4C)C3)c(C)nc2c1 (stereo not drawn) [CBK281964] | 110.571
CC(C)(C)c1ccc(C(=O)N2CCC(C(=O)O)CC2)cc1 [CBK286949] | 137.611
Cc1cc(C)c(NC(=O)N(CCCO)Cc2ccncc2)c(Cl)c1 [CBK304406] | 110.416
CN(C)CC(=O)N1CCN(c2ccc(C(=O)c3ccccc3)cc2[N+](=O)[O-])CC1 [CBK296699] | 142.593
Cc1nn(-c2ccc3nnc(C)n3n2)c2c1C(c1ccccc1F)CC(=O)N2 (stereo not drawn) [CBK287898] | 106.448
Cc1ccc(C(=O)CN2CCCC3(C2)NCCc2c3[nH]c3c(C)cccc23)cc1 (stereo not drawn) [CBK039546] | 105.19
COc1ccccc1CN(Cc1cccnc1)C(=O)CCn1cnnn1 [CBK307106] | 116.176
O=C(CN1CCCCCC1)N/N=C/c1ccccc1Cl [CBK261589] | 120.622
CCN1CCC2(C/C=C/CCOc3ccccc3C(=O)NCCCNC2=O)CC1 [CBK292060] | 118.879
C[C@@H](c1ccccc1)n1c(=O)[nH]c2ncc(-c3ccc(N(C)C)cc3)nc21 [CBK064352] | 127.674
CCOC(=O)c1nc(C2CCN(c3cccc(F)c3C#N)CC2)n[nH]1 [CBK304711] | 106.566
O=C(Nc1cc(Cl)nc(Cl)c1)N(Cc1ccc2ccccc2c1)CC1CCNCC1 [CBK049773] | 38.5502
N=C(N)NCC(=O)N(CCCc1cc(C(F)(F)F)cc(C(F)(F)F)c1)c1ccc2c(c1)OCO2 [CBK000702T] | 111.059
CCN(CC)C(=O)NC(C)c1cccc(S(=O)(=O)NC)c1 (stereo not drawn) [CBK305134] | 132.575
O=C(CC(CN1CCCCC1)C(=O)O)Nc1cccc(O)c1 (stereo not drawn) [CBK286788] | 106.972
CC(=O)c1c(C)oc(C)c1C(C)=O [CBK012535] | 102.832
FC(F)(F)c1ccc(N2CCNCC2)nc1SCc1ccccc1Cl [CBK003964A] | 79.0323
CCOc1ccc(-c2noc(CCC(=O)NC)n2)cc1OC [CBK269226] | 104.558
COc1ncc(-c2cnc(N)c(-c3ccc(C=O)cc3)n2)c(OC)n1 [CBK064110] | 197.976
O=C(O)/C=C/C(=O)NNC(=O)c1ccccc1Br [CBK261786] | 113.098
COC(=O)CNC(=O)c1ccncc1Br [CBK057760] | 121.914
Cc1cc(O)n2nc(C)c(-c3ccc(F)cc3)c2n1 [CBK283642] | 103.319
COc1ccc2[nH]cc(CC3CCNCC3)c2c1 [CBK012779] | 94.7835
COc1ccc(CNC(=O)c2ccccc2NS(=O)(=O)c2cc(Cl)ccc2Cl)cc1 [CBK113964] | 108.269
Cc1nc(C)c(CCC(=O)Nc2ccc(N3CCOCC3)cc2)c(=O)[nH]1 [CBK306059] | 110.575
